Reference: PubChem BioAssay AID588795 (National Center for Advancing Translational Sciences (NCATS), 2011)
This list holds what a sample rich in hits left over. Calls of active or inactive are those of the source. The call rests on the fitted dose curve; in most records, active means well fitted inhibition curve with a large enough effect; inconclusive means small, poorly fitted or top-dose-only effect; inactive means no such curve, though single readings can be large or run the other way.

By UniProt entry, the sequences of proteins in these tests, tags left out.
UniProt P39748, whole entry, looked up: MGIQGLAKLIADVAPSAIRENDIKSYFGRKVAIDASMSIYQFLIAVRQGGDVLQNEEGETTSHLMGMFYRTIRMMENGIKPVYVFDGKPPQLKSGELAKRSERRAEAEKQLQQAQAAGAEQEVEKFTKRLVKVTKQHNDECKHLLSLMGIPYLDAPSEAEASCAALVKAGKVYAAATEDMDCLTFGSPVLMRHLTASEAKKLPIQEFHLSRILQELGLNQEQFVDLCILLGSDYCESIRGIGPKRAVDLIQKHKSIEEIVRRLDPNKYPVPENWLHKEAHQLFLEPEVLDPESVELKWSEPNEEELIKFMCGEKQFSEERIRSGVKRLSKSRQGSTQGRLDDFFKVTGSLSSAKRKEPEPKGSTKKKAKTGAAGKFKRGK

target: Flap endonuclease 1 (Homo sapiens) (UniProt P39748); assay: qHTS Assay for the Inhibitors of Human Flap endonuclease 1 (FEN1).; further: nearly all actives have a fitted effect of over 65% in size; details: Recombinant FEN1 flap cleavage, fluorescence, 15 min; at 114 µM (top of the series)
Description: The major human flap endonuclease FEN1 is an efficient structure-specific enzyme that recognizes and cleaves a 5'-unannealed DNA flap. It belongs to the RAD2 family nucleases, which are involved in DNA metabolism and are highly conserved in prokaryotes and eukaryotes. FEN1 is a key enzyme in DNA replication, repair and maintenance of genomic stability. 5'-flap removal by FEN1 is critical for Okazaki fragment processing during lagging strand DNA synthesis, long-patch base excision repair (LP BER), and regulating or facilitating recombination events. […] Deletion of the yeast FEN1 gene, i.e. rad27, results in an increased frequency of short DNA (3-32 bp) repeats, micro- and mini-satellite formation, trinucleotide repeat expansion, spontaneous recombination events, and a severe growth defect in association with cell cycle arrest in late S/G2 phase. […]
Three uL of reagents (buffer in column 3 and 4 as negative control and 10 nM FEN1 in columns 1, 2, and 5-48) were dispensed into 1,536-well black solid-bottomed plate. […] The plates were then incubated for 15 min at room temperature, and 1 uL substrate (50 nM final concentration) were added to start the reaction read twice at 0 min read and 15 min on ViewLux reader. […]
On the % scale 0 is the no-effect control and ±100 the full control effect.

Compound	activity change, negative = inhibition
CN1[C@@H]2CC[C@H]1CC(OC(=O)C(O)c1ccccc1)C2 (stereo partly specified)	inactive: 3.27%
